# Reference: the supplement of paper PMC10849652
# The chains behind the UniProt entries cited, without tags or fusion partners. Where a name states a change or a piece, a line headed by the entry shows the natural chain unless it says otherwise.
# UniProt P55072, whole entry, looked up: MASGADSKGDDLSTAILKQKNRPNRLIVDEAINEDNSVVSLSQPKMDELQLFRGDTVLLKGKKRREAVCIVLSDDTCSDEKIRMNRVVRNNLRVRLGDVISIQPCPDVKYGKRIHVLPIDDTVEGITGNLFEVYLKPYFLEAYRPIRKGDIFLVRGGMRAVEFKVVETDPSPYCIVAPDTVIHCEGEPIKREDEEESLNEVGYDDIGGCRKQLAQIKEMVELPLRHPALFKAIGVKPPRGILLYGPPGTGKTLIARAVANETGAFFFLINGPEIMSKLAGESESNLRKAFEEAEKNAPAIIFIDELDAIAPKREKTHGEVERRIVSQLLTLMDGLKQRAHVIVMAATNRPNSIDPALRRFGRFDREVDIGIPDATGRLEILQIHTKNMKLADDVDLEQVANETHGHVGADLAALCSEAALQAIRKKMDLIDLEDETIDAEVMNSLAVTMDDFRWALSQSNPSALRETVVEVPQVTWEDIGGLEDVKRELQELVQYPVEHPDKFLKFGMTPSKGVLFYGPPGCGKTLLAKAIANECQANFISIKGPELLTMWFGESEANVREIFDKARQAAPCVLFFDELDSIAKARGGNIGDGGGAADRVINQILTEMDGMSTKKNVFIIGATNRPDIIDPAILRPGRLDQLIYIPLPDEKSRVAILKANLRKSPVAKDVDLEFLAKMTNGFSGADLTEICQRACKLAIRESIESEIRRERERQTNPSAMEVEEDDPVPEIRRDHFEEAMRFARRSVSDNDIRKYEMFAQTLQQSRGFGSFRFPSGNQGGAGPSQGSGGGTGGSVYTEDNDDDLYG
# UniProt P40818: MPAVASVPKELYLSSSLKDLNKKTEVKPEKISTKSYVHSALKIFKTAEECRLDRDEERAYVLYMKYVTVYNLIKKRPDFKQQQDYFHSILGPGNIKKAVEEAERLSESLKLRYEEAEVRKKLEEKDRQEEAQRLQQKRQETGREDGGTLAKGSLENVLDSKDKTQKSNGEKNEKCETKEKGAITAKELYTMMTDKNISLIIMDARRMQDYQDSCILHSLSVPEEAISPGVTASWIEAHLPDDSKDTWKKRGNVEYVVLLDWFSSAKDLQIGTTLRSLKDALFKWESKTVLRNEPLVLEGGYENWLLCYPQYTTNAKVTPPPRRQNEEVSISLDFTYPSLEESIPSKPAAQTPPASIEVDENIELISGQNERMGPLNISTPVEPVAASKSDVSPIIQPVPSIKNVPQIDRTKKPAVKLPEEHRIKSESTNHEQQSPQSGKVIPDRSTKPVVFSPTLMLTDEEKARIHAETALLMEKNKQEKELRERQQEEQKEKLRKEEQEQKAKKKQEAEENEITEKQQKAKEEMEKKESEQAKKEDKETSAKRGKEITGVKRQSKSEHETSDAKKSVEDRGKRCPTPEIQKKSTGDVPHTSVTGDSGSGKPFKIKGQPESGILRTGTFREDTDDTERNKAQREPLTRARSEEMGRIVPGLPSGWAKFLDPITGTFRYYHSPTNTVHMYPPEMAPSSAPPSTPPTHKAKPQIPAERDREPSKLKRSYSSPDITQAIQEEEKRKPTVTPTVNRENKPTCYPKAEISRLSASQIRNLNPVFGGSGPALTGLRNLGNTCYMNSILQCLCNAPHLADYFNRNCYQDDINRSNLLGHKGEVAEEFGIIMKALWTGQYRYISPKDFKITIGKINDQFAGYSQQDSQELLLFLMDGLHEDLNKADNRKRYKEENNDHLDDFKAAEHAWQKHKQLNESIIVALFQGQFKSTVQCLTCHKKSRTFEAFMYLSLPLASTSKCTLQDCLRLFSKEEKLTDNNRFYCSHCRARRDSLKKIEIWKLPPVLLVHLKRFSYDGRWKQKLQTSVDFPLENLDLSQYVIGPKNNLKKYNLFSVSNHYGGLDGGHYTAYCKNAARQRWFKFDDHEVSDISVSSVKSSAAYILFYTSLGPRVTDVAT
# UniProt Q6BDS2: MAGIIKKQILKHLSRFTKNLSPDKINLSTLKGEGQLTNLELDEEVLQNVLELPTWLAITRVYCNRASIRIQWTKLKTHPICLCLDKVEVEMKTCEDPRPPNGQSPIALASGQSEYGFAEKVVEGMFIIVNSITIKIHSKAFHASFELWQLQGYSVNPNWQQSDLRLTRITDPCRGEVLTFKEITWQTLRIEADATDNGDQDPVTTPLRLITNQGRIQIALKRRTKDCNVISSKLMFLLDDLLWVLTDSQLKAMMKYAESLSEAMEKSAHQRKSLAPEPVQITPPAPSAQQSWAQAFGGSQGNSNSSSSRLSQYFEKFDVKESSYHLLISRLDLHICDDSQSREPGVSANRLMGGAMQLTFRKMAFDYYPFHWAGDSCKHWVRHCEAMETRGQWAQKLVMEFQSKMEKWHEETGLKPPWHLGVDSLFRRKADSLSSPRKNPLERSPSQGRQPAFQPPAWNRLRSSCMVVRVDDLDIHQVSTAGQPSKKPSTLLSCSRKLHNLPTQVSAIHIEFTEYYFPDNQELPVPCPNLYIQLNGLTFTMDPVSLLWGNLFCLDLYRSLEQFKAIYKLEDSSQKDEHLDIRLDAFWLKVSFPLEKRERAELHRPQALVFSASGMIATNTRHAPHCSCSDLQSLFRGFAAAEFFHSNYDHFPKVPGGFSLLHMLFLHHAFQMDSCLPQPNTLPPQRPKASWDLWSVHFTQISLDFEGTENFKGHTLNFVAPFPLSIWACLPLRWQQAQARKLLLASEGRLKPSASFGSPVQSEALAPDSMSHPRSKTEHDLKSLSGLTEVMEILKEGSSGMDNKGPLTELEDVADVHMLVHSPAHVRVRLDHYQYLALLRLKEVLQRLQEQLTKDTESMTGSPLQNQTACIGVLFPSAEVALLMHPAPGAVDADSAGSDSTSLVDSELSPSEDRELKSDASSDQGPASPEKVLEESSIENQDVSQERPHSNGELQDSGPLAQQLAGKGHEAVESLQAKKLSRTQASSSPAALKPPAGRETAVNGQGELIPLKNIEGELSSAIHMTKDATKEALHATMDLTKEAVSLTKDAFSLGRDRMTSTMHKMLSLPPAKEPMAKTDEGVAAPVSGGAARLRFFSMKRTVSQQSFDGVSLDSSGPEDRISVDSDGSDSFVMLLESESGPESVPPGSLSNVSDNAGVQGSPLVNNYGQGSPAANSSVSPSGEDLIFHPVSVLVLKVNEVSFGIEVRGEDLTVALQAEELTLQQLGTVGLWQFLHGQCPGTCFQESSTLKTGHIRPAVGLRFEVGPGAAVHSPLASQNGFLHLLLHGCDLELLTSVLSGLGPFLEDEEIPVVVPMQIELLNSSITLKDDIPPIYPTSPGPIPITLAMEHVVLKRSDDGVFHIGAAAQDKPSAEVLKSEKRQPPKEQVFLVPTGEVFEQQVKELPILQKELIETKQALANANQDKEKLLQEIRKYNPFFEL
# UniProt Q9Y3C8: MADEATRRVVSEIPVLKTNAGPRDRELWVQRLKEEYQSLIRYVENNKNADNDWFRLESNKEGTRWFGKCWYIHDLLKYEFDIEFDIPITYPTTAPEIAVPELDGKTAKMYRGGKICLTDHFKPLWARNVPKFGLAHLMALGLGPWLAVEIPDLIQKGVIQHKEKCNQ
# UniProt P31930: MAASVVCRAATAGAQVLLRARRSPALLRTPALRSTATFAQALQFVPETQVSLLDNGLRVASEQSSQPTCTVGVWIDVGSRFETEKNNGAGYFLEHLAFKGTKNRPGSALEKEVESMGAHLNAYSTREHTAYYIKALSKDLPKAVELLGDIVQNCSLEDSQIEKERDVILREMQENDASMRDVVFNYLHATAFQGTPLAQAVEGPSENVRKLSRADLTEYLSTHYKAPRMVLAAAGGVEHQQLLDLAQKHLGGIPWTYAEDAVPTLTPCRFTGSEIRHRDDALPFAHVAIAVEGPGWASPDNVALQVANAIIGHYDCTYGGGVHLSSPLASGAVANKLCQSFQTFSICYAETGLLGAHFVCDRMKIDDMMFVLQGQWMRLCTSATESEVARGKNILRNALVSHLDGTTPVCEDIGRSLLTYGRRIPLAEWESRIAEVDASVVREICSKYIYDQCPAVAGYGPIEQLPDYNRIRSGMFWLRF
# UniProt P15498: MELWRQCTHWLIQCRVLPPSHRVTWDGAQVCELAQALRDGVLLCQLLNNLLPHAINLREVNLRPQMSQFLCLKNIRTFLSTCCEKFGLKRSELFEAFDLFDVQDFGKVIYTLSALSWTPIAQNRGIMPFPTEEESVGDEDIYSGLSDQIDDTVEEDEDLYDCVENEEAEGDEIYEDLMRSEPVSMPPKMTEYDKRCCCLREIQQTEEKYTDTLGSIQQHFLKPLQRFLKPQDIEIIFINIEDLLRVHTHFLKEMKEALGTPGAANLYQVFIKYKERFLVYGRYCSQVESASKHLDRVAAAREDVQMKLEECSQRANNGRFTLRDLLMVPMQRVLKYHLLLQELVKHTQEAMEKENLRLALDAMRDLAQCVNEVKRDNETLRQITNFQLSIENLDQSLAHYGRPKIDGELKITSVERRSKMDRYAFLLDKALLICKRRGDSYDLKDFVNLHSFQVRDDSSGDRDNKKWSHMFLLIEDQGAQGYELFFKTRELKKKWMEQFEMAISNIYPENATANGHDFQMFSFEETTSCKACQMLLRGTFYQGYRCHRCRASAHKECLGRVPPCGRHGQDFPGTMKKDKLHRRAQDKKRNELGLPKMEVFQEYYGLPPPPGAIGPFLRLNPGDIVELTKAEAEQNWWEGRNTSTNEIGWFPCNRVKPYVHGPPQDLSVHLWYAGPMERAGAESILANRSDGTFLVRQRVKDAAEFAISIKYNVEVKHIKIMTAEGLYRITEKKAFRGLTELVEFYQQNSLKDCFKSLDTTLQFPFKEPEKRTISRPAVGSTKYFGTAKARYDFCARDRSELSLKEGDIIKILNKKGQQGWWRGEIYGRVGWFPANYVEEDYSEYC
# UniProt Q9BQ65: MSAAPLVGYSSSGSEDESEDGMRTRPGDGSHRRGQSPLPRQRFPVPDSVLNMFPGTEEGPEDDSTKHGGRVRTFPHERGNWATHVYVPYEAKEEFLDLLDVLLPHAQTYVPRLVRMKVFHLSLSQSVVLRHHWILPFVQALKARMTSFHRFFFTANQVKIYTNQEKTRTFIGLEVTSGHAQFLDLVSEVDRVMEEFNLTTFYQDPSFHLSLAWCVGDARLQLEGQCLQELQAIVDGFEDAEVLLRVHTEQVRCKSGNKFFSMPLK
# UniProt Q70J99: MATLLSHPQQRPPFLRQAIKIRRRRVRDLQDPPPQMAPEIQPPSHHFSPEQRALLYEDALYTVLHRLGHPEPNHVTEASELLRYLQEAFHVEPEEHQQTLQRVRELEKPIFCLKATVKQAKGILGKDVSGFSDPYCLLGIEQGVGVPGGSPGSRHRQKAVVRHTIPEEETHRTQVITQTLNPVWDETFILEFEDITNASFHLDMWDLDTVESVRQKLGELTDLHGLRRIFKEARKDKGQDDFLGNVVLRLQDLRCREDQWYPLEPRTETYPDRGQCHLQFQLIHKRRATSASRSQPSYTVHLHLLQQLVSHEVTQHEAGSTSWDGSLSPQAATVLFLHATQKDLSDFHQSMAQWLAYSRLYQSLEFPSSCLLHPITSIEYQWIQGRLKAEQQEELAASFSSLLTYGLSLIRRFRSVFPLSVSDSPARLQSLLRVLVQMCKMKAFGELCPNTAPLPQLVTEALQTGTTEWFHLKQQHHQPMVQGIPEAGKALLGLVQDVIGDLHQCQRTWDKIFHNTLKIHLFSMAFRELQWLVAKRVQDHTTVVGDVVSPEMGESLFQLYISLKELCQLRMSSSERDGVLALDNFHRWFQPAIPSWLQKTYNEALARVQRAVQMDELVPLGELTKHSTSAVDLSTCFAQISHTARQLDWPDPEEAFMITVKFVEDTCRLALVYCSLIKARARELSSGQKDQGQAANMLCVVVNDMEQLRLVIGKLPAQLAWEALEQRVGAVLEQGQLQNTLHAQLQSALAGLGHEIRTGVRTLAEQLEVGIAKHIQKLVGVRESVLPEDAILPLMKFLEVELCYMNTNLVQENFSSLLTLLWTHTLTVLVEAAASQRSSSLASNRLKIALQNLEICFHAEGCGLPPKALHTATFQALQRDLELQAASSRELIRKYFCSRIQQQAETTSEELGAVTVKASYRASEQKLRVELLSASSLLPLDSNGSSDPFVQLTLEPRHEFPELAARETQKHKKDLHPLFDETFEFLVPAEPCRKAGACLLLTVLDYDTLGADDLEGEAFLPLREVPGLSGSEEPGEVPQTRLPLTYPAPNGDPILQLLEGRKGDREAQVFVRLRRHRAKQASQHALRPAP
# UniProt Q15853: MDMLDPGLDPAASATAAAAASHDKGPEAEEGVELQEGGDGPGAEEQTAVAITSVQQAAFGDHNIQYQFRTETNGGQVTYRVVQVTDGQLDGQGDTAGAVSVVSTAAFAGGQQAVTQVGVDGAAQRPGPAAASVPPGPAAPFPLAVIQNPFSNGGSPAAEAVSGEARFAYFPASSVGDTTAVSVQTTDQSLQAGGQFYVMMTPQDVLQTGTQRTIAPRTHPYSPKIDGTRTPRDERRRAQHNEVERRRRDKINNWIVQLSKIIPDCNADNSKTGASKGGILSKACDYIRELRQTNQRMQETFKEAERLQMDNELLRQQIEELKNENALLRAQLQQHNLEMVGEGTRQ
# Some of the results follow.
# Legend:
# Experiment in all cases: log2 fold change, soluble protein after heating vs DMSO (PISA); higher = thermal stabilisation; K562 lysate, 10 uM; active = over 0.2 and 3.5 SD of the protein, either way, in both replicates (recomputed)
# [1] = compound: Cc1cn(-c2cc(NC(=O)c3ccc(C)c(Nc4nccc(-c5cccnc5)n4)c3)cc(C(F)(F)F)c2)cn1 [nilotinib]
# How it was run: (§1)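 Log-two fold change in thermal stability relative to solvent controls is reported from duplicates. For each sample, crude K562 extract from dounce-homogenised pellets in PBS pH 7.4 with 1 mM MgCl2, at 1 mg/mL protein, was treated with 10 μM compound for 30 min. Aliquots heated for 3 min across 48°C-58°C were pooled, brought to 0.5% NP-40 at 4°C and cleared at 21,000xg for 90 min. The supernatant was quantified by TMTpro 16plex LC-MS/MS with channel sums equalised.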
# [2] = compound: Cc1nc(Nc2n[nH]c3c2CN(C(=O)N[C@H](CN(C)C)c2ccccc2)C3(C)C)c2sccc2n1
# How it was run: as §1
# [3] = compound: Cc1nc(Nc2ncc(C(=O)Nc3c(C)cccc3Cl)s2)cc(N2CCN(CCO)CC2)n1 [dasatinib]
# How it was run: as §1
# [4] = compound: Cc1ncc(-c2ccnc(Nc3ccc(S(C)(=O)=O)cc3)n2)n1C(C)C
# How it was run: as §1
# [5] = compound: Cn1cc(-c2ccc3c(c2)CCN3C(=O)Cc2cccc(C(F)(F)F)c2)c2c(N)ncnc21
# How it was run: as §1
# [6] = compound: Cn1cc(CNCC2CCN(c3ncc(C(=O)NO)cn3)CC2)c2ccccc21 [quisinostat]
# How it was run: as §1
# [7] = compound: Cn1cncc1[C@@](N)(c1ccc(Cl)cc1)c1ccc2c(c1)c(-c1cccc(Cl)c1)cc(=O)n2C [tipifarnib]
# How it was run: as §1
# [8] = compound: NC(=O)Nc1cc(-c2cccc(F)c2)sc1C(=O)N[C@H]1CCCNC1
# How it was run: as §1
# [9] = compound: NC(=O)c1cnc(N[C@@H]2CCCC[C@@H]2N)nc1Nc1cccc(-n2nccn2)c1
# How it was run: as §1
# [10] = compound: NC1(c2ccc(-c3nc4ccn5c(=O)[nH]nc5c4cc3-c3ccccc3)cc2)CCC1
# How it was run: as §1
# [11] = compound: NCC(=O)Nc1ccc(-n2nc(C(F)(F)F)cc2-c2ccc3c(ccc4ccccc43)c2)cc1
# How it was run: as §1
# [12] = compound: O=C(CCCCCCC(=O)Nc1ccccc1)NO [vorinostat]
# How it was run: as §1
# [13] = compound: O=C(O)c1ccc2c(c1)nc(Nc1cccc(Cl)c1)c1ccncc12 [silmitasertib]
# How it was run: as §1
# [14] = compound: O=C1NC(=O)C(c2cnc3ccccn23)=C1c1cn2c3c(cc(F)cc13)CN(C(=O)N1CCCCC1)CC2
# How it was run: as §1
# [15] = compound: c1cn2cc(-c3ccc4cn[nH]c4c3)nc(Nc3ccc(N4CCOCC4)cc3)c2n1 [entospletinib]
# How it was run: as §1
Target,log2 fold change [1],log2 fold change [2],log2 fold change [3],log2 fold change [4],log2 fold change [5],log2 fold change [6],log2 fold change [7],log2 fold change [8],log2 fold change [9],log2 fold change [10],log2 fold change [11],log2 fold change [12],log2 fold change [13],log2 fold change [14],log2 fold change [15]
USO1 (UniProt O60763),inactive: 0.026,inactive: -0.014,inactive: -0.141,inactive: -0.048,inactive: 0.009,inactive: 0.087,inactive: -0.085,inactive: 0.046,inactive: -0.052,inactive: 0,inactive: -0.102,inactive: -0.066,inactive: 0.003,inactive: 0.064,inactive: 0.047
USP25 (UniProt Q9UHP3),inactive: 0.016,inactive: 0.013,inactive: -0.003,inactive: -0.016,inactive: 0.011,inactive: -0.011,inactive: 0.004,inactive: 0.022,inactive: -0.006,inactive: -0.015,inactive: -0.01,inactive: 0.041,inactive: 0.038,inactive: -0.014,inactive: -0.005
VCP (UniProt P55072),inactive: 0.01,inactive: 0.001,inactive: 0.018,inactive: 0.009,inactive: -0.028,inactive: 0.014,inactive: 0.014,inactive: -0.023,inactive: -0.017,inactive: 0.002,inactive: 0.016,inactive: 0.13,inactive: -0.009,inactive: -0.004,inactive: 0.005
USP8 (UniProt P40818),inactive: -0.014,inactive: -0.007,inactive: 0.005,inactive: 0.042,inactive: 0.024,inactive: -0.015,inactive: -0.01,inactive: 0.016,inactive: -0.016,inactive: 0.026,inactive: 0.012,active: -0.324,inactive: 0.013,inactive: 0.009,inactive: 0.012
UHRF1BP1 (UniProt Q6BDS2),inactive: 0.077,inactive: 0.034,inactive: 0.009,inactive: 0.03,inactive: -0.015,inactive: 0.013,inactive: -0.045,inactive: 0.007,inactive: 0.007,inactive: 0.022,inactive: 0.005,inactive: -0.044,inactive: -0.068,inactive: -0.011,inactive: 0.009
UFC1 (UniProt Q9Y3C8),inactive: -0.051,inactive: 0.044,inactive: 0.025,inactive: -0.013,inactive: 0.021,inactive: 0.114,inactive: 0.003,inactive: -0.038,inactive: -0.02,inactive: 0.039,inactive: 0.067,inactive: 0.061,inactive: 0.005,inactive: 0.031,inactive: -0.025
UPF2 (UniProt Q9HAU5),inactive: -0.011,inactive: 0.018,inactive: -0.014,inactive: -0.007,inactive: 0.009,inactive: 0,inactive: 0.007,inactive: 0.015,inactive: -0.016,inactive: -0.008,inactive: 0.008,inactive: -0.079,inactive: -0.023,inactive: -0.014,inactive: -0.013
UQCRC1 (UniProt P31930),inactive: 0.024,inactive: -0.032,inactive: -0.006,inactive: -0.023,inactive: -0.021,inactive: 0.055,inactive: -0.027,inactive: -0.016,inactive: 0.025,inactive: 0.008,inactive: 0.031,inactive: 0.135,inactive: -0.016,inactive: -0.012,inactive: -0.005
VAV1 (UniProt P15498),inactive: 0.022,inactive: -0.031,inactive: 0.007,inactive: 0.009,inactive: 0.04,inactive: 0.022,inactive: 0,inactive: -0.018,inactive: 0.007,inactive: -0.054,inactive: -0.003,active: -0.268,inactive: 0,inactive: -0.027,inactive: 0.004
USB1 (UniProt Q9BQ65),inactive: 0.122,inactive: -0.067,inactive: -0.03,inactive: -0.081,inactive: -0.022,inactive: -0.094,inactive: 0.001,inactive: -0.034,inactive: -0.172,inactive: 0.093,inactive: -0.119,inactive: -0.052,inactive: -0.043,inactive: 0.032,inactive: -0.161
VBP1 (UniProt P61758),inactive: -0.007,inactive: 0.002,inactive: 0.026,inactive: -0.008,inactive: 0.001,inactive: -0.026,inactive: 0.003,inactive: -0.01,inactive: 0.013,inactive: 0.002,inactive: -0.009,inactive: 0.056,inactive: 0.007,inactive: 0.006,inactive: -0.003
VDAC2 (UniProt Q5JSD1),inactive: 0.005,inactive: 0.012,inactive: 0.048,inactive: 0.06,inactive: -0.106,inactive: -0.043,inactive: -0.114,inactive: -0.023,inactive: -0.066,inactive: 0.037,inactive: 0.025,inactive: -0.182,inactive: -0.076,inactive: 0.02,inactive: -0.041
UNC13D (UniProt Q70J99),inactive: 0.043,inactive: -0.014,inactive: -0.05,inactive: 0,inactive: 0,inactive: -0.079,inactive: -0.006,inactive: 0.05,inactive: 0.022,inactive: -0.024,inactive: 0.022,active: -0.211,inactive: 0.002,inactive: -0.006,inactive: 0.026
UROD (UniProt P06132),inactive: 0.043,inactive: 0.006,inactive: 0.014,inactive: 0.004,inactive: -0.001,inactive: 0.056,inactive: -0.004,inactive: -0.032,inactive: 0.005,inactive: 0.007,inactive: 0.017,inactive: 0.147,inactive: 0.021,inactive: -0.017,inactive: -0.007
VCPIP1 (UniProt Q96JH7),inactive: -0.006,inactive: 0.044,inactive: -0.045,inactive: -0.025,inactive: 0.016,inactive: -0.046,inactive: 0.011,inactive: 0.031,inactive: 0.029,inactive: -0.059,inactive: 0.007,active: 0.894,inactive: 0.029,inactive: -0.021,inactive: 0.006
USP9X (UniProt Q93008),inactive: -0.01,inactive: 0,inactive: -0.045,inactive: 0.002,inactive: 0,inactive: -0.017,inactive: -0.024,inactive: 0.03,inactive: 0.02,inactive: -0.003,inactive: 0.011,active: -0.466,inactive: 0.028,inactive: -0.012,inactive: 0
USF2 (UniProt Q15853),inactive: -0.049,inactive: -0.058,inactive: 0.024,inactive: -0.15,inactive: 0.035,inactive: -0.071,inactive: 0.012,inactive: -0.003,inactive: 0.026,inactive: 0.024,inactive: -0.019,inactive: -0.088,inactive: -0.02,inactive: -0.03,inactive: 0.026
"VARS2, A0A0G2JL52",inactive: 0.056,inactive: -0.114,inactive: -0.072,inactive: 0.024,inactive: 0.009,inactive: -0.027,inactive: -0.054,inactive: -0.012,inactive: 0.026,inactive: -0.039,inactive: -0.012,inactive: -0.088,inactive: 0.009,inactive: -0.003,inactive: -0.02
UHRF1 isoform 2 (UniProt Q96T88),inactive: -0.036,inactive: -0.063,inactive: -0.045,inactive: -0.003,inactive: 0.073,inactive: -0.009,inactive: 0.038,inactive: -0.022,inactive: 0.044,inactive: -0.018,inactive: -0.015,inactive: -0.211,inactive: 0.024,inactive: 0.068,inactive: -0.054
UTP20 (UniProt O75691),inactive: 0.05,inactive: 0.034,inactive: 0.081,inactive: 0.074,inactive: 0.078,inactive: 0.034,inactive: 0.023,inactive: 0.045,inactive: 0.002,inactive: -0.055,inactive: -0.213,inactive: -0.058,inactive: 0.02,inactive: -0.023,inactive: -0.036
UNK (UniProt Q9C0B0),inactive: 0.005,inactive: -0.08,inactive: -0.063,inactive: 0.087,inactive: 0.013,inactive: 0.043,inactive: -0.031,inactive: 0.016,inactive: 0.027,inactive: 0.052,inactive: 0.027,inactive: -0.024,inactive: -0.013,inactive: 0.049,inactive: -0.011

# Record cards (already shown). Order of values: log2 fold change [1]	log2 fold change [2]	log2 fold change [3]	log2 fold change [4]	log2 fold change [5]	log2 fold change [6]	log2 fold change [7]	log2 fold change [8]	log2 fold change [9]	log2 fold change [10]	log2 fold change [11]	log2 fold change [12]	log2 fold change [13]	log2 fold change [14]	log2 fold change [15]
# UTP20 (UniProt O75691) is entered as inactive: 0.05	inactive: 0.034	inactive: 0.081	inactive: 0.074	inactive: 0.078	inactive: 0.034	inactive: 0.023	inactive: 0.045	inactive: 0.002	inactive: -0.055	inactive: -0.213	inactive: -0.058	inactive: 0.02	inactive: -0.023	inactive: -0.036
# VDAC2 (UniProt Q5JSD1) is entered as inactive: 0.005	inactive: 0.012	inactive: 0.048	inactive: 0.06	inactive: -0.106	inactive: -0.043	inactive: -0.114	inactive: -0.023	inactive: -0.066	inactive: 0.037	inactive: 0.025	inactive: -0.182	inactive: -0.076	inactive: 0.02	inactive: -0.041
